PubChem BioAssay AID1259424 – University of Nebraska Medical Center – 2018

Screen: 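Rank knockdowns across the genome by resemblance to the KSR1 depletion profile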 (primary screen)
System: human HCT116 colon cancer cells
Knock-down reagent: siRNA pool against human genes, 50 nM
Read-out: 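Log2 levels of six mRNAs (branched-DNA multiplex), adjusted by two reference genes and the non-targeting median, then scored against the average KSR1 knockdown pattern as Pearson r and euclidean distance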
Reading the numbers: mean correlation with KSR1 profile: higher = expression change more like KSR1 knockdown; mean distance from KSR1 profile: higher = expression change less like KSR1 knockdown
The deposit covers about 14,000 reagents; this is an unselected part. 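Higher correlation or smaller distance means closer resemblance to KSR1 loss; control wells, including KSR1 knockdowns, recur on many plates.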 Further read-outs or replicates are left out here. The record does not give: the time to read-out.

mean correlation with KSR1 profile,mean distance from KSR1 profile,gene
0.206,2.33,ZNF148 (GeneID 7707)
0.0248,2.7,COL11A1 (GeneID 1301)
0.0383,3.67,TMED9 (GeneID 54732)
-0.239,2.18,MSMB (GeneID 4477)
-0.23,2.38,CRYBB2 (GeneID 1415)
-0.158,4.14,ZNF77 (GeneID 58492)
-0.105,1.71,OPHN1 (GeneID 4983)
0.246,1.59,ARPC3 (GeneID 10094)
0.719,0.983,CD5 (GeneID 921)
0.124,2.12,VPS52 (GeneID 6293)
-0.533,3.16,KIR3DL3 (GeneID 115653)
-0.393,6.58,AGFG1 (GeneID 3267)
0.856,0.956,LRIG2 (GeneID 9860)
0.766,1.51,HTR6 (GeneID 3362)
0.0222,2.07,CGB5 (GeneID 93659)
-0.475,2.97,PANX1 (GeneID 24145)
-0.23,1.78,CUL1 (GeneID 8454)
-0.111,1.74,MPRIP (GeneID 23164)

Laid out differently: results already given.
{"gene": "OPHN1 (GeneID 4983)", "mean correlation with KSR1 profile": -0.105, "mean distance from KSR1 profile": 1.71}
{"gene": "ARPC3 (GeneID 10094)", "mean correlation with KSR1 profile": 0.246, "mean distance from KSR1 profile": 1.59}
{"gene": "CD5 (GeneID 921)", "mean correlation with KSR1 profile": 0.719, "mean distance from KSR1 profile": 0.983}

Continued.
mean correlation with KSR1 profile,mean distance from KSR1 profile,gene
-0.0271,2.15,RNF44 (GeneID 22838)
-0.604,2.59,DZANK1 (GeneID 55184)
-0.337,2.26,KAT6B (GeneID 23522)
-0.101,2.22,BRD2 (GeneID 6046)
-0.0533,2.43,PPT2 (GeneID 9374)
-0.36,2.39,METTL4 (GeneID 64863)
-0.439,2.11,DNAI2 (GeneID 64446)
-0.614,5.67,TCL1A (GeneID 8115)
0.345,1.88,SORBS2 (GeneID 8470)
-0.21,1.48,MKRN2 (GeneID 23609)
-0.0907,1.3,BAIAP2L1 (GeneID 55971)
-0.365,2.68,SPON1 (GeneID 10418)
0.467,1.24,OXCT1 (GeneID 5019)
0.601,1.72,TCF20 (GeneID 6942)
-0.246,1,SMARCA4 (GeneID 6597)
-0.055,1.51,SAA4 (GeneID 6291)
